Results as given in paper doi:10.1101/203539.
These are yes or no findings as the source states them, for the method shown. In cells and extracts the contact can be indirect. Some entries that bind do so weakly or less than the wild type. Sequences can lack the tags named with a protein.

Target: T1, biotagged Csde1 (cold shock domain protein e1) (UniProt Q91W50)
T1 sequence (chain, biotin on the biotag (biotin ligase BirA coexpressed)): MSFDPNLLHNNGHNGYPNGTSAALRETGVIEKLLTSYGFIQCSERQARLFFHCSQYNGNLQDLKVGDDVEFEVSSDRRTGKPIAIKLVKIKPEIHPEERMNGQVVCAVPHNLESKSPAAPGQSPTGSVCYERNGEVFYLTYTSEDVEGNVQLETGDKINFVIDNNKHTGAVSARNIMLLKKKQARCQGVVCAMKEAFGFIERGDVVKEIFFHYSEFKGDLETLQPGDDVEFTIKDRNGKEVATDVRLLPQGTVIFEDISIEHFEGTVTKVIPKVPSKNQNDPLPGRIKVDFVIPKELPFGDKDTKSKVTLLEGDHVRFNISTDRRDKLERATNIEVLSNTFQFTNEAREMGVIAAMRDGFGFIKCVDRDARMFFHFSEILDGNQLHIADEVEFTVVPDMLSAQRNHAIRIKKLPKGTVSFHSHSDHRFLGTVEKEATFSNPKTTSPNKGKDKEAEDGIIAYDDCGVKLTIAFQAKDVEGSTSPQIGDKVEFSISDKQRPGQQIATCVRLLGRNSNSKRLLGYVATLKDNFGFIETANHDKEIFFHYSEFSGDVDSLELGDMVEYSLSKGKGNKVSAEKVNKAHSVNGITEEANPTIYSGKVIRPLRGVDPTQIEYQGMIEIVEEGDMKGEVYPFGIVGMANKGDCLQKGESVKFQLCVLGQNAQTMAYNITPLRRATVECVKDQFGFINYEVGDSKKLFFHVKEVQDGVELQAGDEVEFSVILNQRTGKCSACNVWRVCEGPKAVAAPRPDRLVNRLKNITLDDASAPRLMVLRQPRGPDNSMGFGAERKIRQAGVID
Test: pull-down

B1: Strap (serine-threonine receptor associated-protein) (protein, UniProt Q9Z1Z2 1-350)
chain: MAMRQTPLTCSGHTRPVVDLAFSGITPYGYFLISACKDGKPMLRQGDTGDWIGTFLGHKGAVWGATLNKDATKAATAAADFTAKVWDAVSGDELMTLAHKHIVKTVDFTQDSNYLLTGGQDKLLRIYDLNKPEAEPKEISGHTSGIKKALWCSDDKQILSADDKTVRLWDHATMTEVKSLNFNMSVSSMEYIPEGEILVITYGRSIAFHSAVSLEPIKSFEAPATINSASLHPEKEFLVAGGEDFKLYKYDYNSGEELESYKGHFGPIHCVRFSPDGELYASGSEDGTLRLWQTVVGKTYGLWKCVLPEEDSGELAKPKIGFPETAEEELEEIASENSDSIYSSTPEVKA
B1 was tested, and the binding was “binds”.
